Values of other authors in patent US20080206770A1, “SCREENING METHODS USED TO IDENTIFY COMPOUNDS THAT MODULATE SKIN STROMAL CELLS (FIBROBLASTS) ABILITY TO MODIFY FUNCTION OF EXTRACELLULAR MATRIX” (priority 2007, published 2008).
Some results were stated once for a whole list of compounds, not compound by compound.

Conditions: anti aging and anti wrinkle skin care products; cited from earlier work

Compound	effect in different advertised studies
palmitoys pentapeptide-3 [Matrixyl]	20-50%
CC1=C(/C=C/C(C)=C/C=C/C(C)=C/C(=O)O)C(C)(C)CCC1 [all trans retinoic acid, all-trans retinoic acid]	20-50%
